{
  "source": "ChEMBL document CHEMBL1764994",
  "about": "“QSAR-based permeability model for drug-like compounds” (Bioorg Med Chem, 2011)",
  "key": {"Caco-2 [1]": {"test_system": "Caco-2", "conditions": "human"}, "Caco-2 [2]": {"test_system": "Caco-2", "conditions": "human, Caco-2, 2 h"}},
  "data": [
    {"smiles": "COC(=O)C1=C(C)NC(C)=C(C(=O)OC)C1c1ccccc1[N+](=O)[O-]", "note": "[NIFEDIPINE]", "values": [
      {"measurement": "logPapp", "setting": "Caco-2 [1]", "value": -4.61},
      {"measurement": "logPapp", "setting": "Caco-2 [2]", "value": -4.49}
    ]}
  ]
}
